These results are taken from PubChem BioAssay AID1487 (National Center for Advancing Translational Sciences (NCATS), 2009).

Molecules are shown by their SMILES. Several values for one entry are separate records, joined by “and”; a condition that tells them apart may be missing. Identical values can stand only once. The list shows a part of the results. Further columns of the screen follow, without active or inactive calls. Most of these compounds were active or inconclusive in the main read-out, so they are no random draw. The note in brackets gives the kind of curve behind each potency; many fits are weak.

This assay is described as follows: qHTS Assay for Modulators of Lamin A Splicing. The following applies: HeLa LMNA splicing GFP/RFP minigene ratio, 48 h. In a few lines: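 Read-out is the ratio of GFP to DsRed2 object intensity, acquired by 488 nm laser-scanning cytometry on HeLa lamin A-EGFP minigene reporter cells. Compound incubation 48 hrs at 37 °C in Opti-MEM with 2% FBS; DMSO 0.5% final.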

Where [1] appears, read: measured here: GFP splicing reporter channel.
[2] abbreviates: measured here: RFP viability control channel.

One may read the AC50 as the concentration giving half of the maximal activity seen. Take `CC1(C)CC(=O)c2cc(O)ccc2O1`: the AC50 under setting [1] is 3.16 µM [falling, partial curve, poor fit]. On to `CSCCC(NS(=O)(=O)c1ccc(Cl)cc1)C(=O)OCC(=O)NC12CC3CC(CC(C3)C1)C2` (stereo not drawn), for which the half-maximal activity concentration (AC50) under setting [2] is 35.5 µM [rising, single point]. Still for that read-out and setting: then `COc1ccc(-c2noc(CCC(=O)NCCCN3CCC(Cc4ccccc4)CC3)n2)cc1`, with 25.1 µM [rising, single point].

On to `Cc1nnc(SCC(=O)c2ccc(C(C)C)cc2)s1`, for which, under setting [1], the AC50 is 6.31 µM [falling, single point]. On to `Cc1cc(C)nc(NC(=O)c2cc(-c3ccc(C)s3)nc3ccccc23)c1`, for which the AC50 under setting [1] was 7.94 µM [rising, partial curve] and the AC50 under setting [2] is 11.2 µM [rising, partial curve]. With `CCCCn1c(SCc2ncc(-c3ccccc3)o2)nc2cc(S(N)(=O)=O)ccc21`, under setting [2], the concentration at half-maximal activity (AC50) was 12.6 µM [rising, partial curve]. As to `O=C(Cn1c(=O)ccc2cc(S(=O)(=O)N3CCCC3)ccc21)Nc1ccc(Cl)cc1`, the AC50 under setting [1] was 0.158 µM [falling, full curve, poor fit]. For `CC(Cc1cccs1)NC(=O)c1cccc(Cl)c1` (stereo not drawn), the AC50 under setting [2] was 0.0891 µM [rising, partial curve, poor fit].

Take `COc1cc2ccccc2cc1C(=O)NCC(c1cccs1)N(C)C` (stereo not drawn): the AC50 under setting [2] was 12.6 µM [rising, partial curve, poor fit]. For `COc1ccc(C2=NOC(C(=O)N(C)Cc3ccccc3)C2)cc1` (stereo not drawn), the AC50 is 0.708 µM [rising, partial curve] under setting [1] and 0.794 µM [rising, single point] under setting [2]. For the molecule `CCOC(=O)N1CCc2c(sc(NC(=O)CN3CCOCC3)c2C(=O)Nc2ccccc2)C1`, the AC50 under setting [2] was 25.1 µM [rising, single point].

Take `CCC(CC)c1nnc(NC(=O)Cc2cccs2)s1`: under setting [2], the AC50 is 5.01 µM [falling, full curve, poor fit]. Same read-out and setting: the figure for `CCOC(=O)c1cc(C)n(Cc2cccc(OC)c2OC)c1C` is 31.6 µM [rising, single point]; for `O=C(NCc1cccnc1)C(=O)NCC(c1ccco1)N1CCN(c2ccccc2F)CC1` (stereo not drawn) it is 25.1 µM [rising, single point]. With `COC(=O)/C(C#N)=C/c1c(Oc2cc(C)cc(C)c2)nc2c(C)cccn2c1=O`, the AC50 by setting is: under setting [1], 0.178 µM [rising, full curve, poor fit]; under setting [2], 0.112 µM [rising, full curve]. In the case of `Cc1ccc(NC(=O)Cc2ccccc2Cl)cc1S(=O)(=O)N(C)C`, the AC50 under setting [2] was 35.5 µM [rising, single point]. Regarding `CCOC(=O)c1c(NC(=O)c2ccn(CC)n2)sc2c1CCCC2`, the AC50 under setting [1] was 35.5 µM [rising, single point] and the AC50 under setting [2] was 31.6 µM [rising, single point]. `CCN1C(=O)c2ccccc2Sc2ccc(NC(=O)c3cccc(C)c3)cc21`: under setting [2], the AC50 was 31.6 µM [rising, partial curve, poor fit]. `Cc1ccc(OCc2nnc(SCC(=O)c3ccccc3)n2Cc2ccco2)cc1`: the AC50 under setting [1] is 11.2 µM [rising, single point]. Turning to `CC(C)NC[C@H](O)COc1ccc(CC(N)=O)cc1`, the AC50 is 2 nM [falling, full curve] and 0.891 nM [falling, full curve, poor fit] and 178 nM [falling, full curve] under setting [1]; 0.00158 µM [falling, full curve, poor fit] under setting [2]. In the case of `O=C(N/N=C/c1ccc(O)c2ncccc12)c1cccc(Br)c1`, under setting [2], the AC50 was 12.6 µM [falling, single point]. Consider `O=C(CCNC(=O)c1ccccc1Cl)Nc1nc(-c2ccc(F)cc2)cs1`, for which, under setting [2], the AC50 was 17.8 µM [rising, single point]. Turning to `Cc1ccc2c(CSc3nc4nc(C)cc(C)n4n3)cc(=O)oc2c1`, the AC50 is, setting by setting: under setting [1], 12.6 µM [rising, partial curve, poor fit]; under setting [2], 20 µM [rising, single point]. With `Fc1ccccc1NC(=S)N1CCN(c2ccccn2)CC1`, under setting [2], the AC50 is 35.5 µM [rising, single point]. On to `COc1ccccc1-c1ccc2ncnc(NCc3cnc(C)cn3)c2c1`, for which the AC50 is 14.1 µM [falling, single point] under setting [1] and 12.6 µM [falling, single point] under setting [2].

Regarding `COC(=O)c1sc(NC(=S)NC(=O)c2ccc(F)cc2)nc1C`, the half-maximal activity concentration (AC50) runs as follows: under setting [1], 0.112 µM [rising, full curve]; under setting [2], 0.316 µM [rising, full curve]. On to `O=c1cc2nc(-c3ccccc3)nc(SCCOc3ccc(Cl)cc3)n2[nH]1`, for which the concentration at half-maximal activity (AC50) is 0.178 µM [falling, full curve, poor fit] under setting [1] and 0.224 µM [falling, full curve, poor fit] under setting [2]. Regarding `CC(C)Oc1ccccc1C1CC(=O)Nc2cc3c(cc21)OCO3` (stereo not drawn), the AC50 is, setting by setting: under setting [1], 3.98 µM [rising, full curve]; under setting [2], 3.98 µM [rising, full curve]. As to `Cn1ccnc1C1CCCCN1C(=O)c1cc(COc2ccc(F)cc2Cl)on1` (stereo not drawn), the AC50 runs as follows: under setting [1], 0.0631 µM [falling, full curve, poor fit]; under setting [2], 0.0447 µM [falling, full curve, poor fit]. For the molecule `c1cnc2c(c1)ccc1cccnc12`, the half-maximal activity concentration (AC50) was 14.1 µM [rising, single point] and 794 nM [rising, full curve] and 20 µM [falling, partial curve] under setting [1]; 12.6 µM [rising, partial curve] and 11.2 µM [rising, partial curve] and 5.01 nM [falling, full curve, poor fit] under setting [2]. Regarding `CCc1ccccc1NC(=O)Nc1cc(C(=O)NCc2ccccc2OC)ccc1N1CCCC1`, under setting [1], the AC50 was 35.5 µM [falling, single point].

Consider `CCCc1n(CC(O)COCC2CC=CCC2)c2ccccc2[n+]1C` (stereo not drawn), for which the half-maximal activity concentration (AC50) under setting [2] is 8.91 µM [falling, single point].

As for `Cc1nn(-c2ccc(Cl)cc2Cl)c(C)c1C(=O)O`, under setting [2], the half-maximal activity concentration (AC50) was 4.47 µM [rising, full curve]. With `Cc1cc(NC(=O)CSc2nc3ccccc3c(=O)n2Cc2ccccc2)no1`, the AC50 under setting [2] was 2.51 µM [rising, partial curve, poor fit]. As for `COc1ccccc1N=Nc1nc(-c2ccccc2)c(-c2ccccc2)[nH]1`, the AC50 by setting is: under setting [1], 35.5 µM [rising, single point]; under setting [2], 35.5 µM [rising, single point].

`CCOc1ccc(C2=Nn3c(nnc3-c3ccccc3OC)SC2)cc1`: the AC50 reads like this: under setting [1], 0.0501 µM [falling, full curve]; under setting [2], 0.0562 µM [falling, full curve]. As for `Cc1ccccc1Nc1c(-c2ccncc2)nc2ccc(Br)cn12`, the half-maximal activity concentration (AC50) under setting [2] was 14.1 µM [rising, single point]. Take `COC(=O)N1C2CC(=O)O[C@@H]3c4cc5c(cc4[C@]1(C)[C@@]3(Br)c1ccccc12)OCO5`: the AC50 under setting [2] is 2 µM [rising, partial curve]. Still for that read-out and setting: the figure for `CCc1nnc(NC(=O)CSc2nc3c([nH]c4ccccc43)c(=O)n2-c2ccc(F)cc2)s1` is 35.5 µM [falling, single point]; for `CCOC(=O)c1cc(-c2ccc(N3CCOCC3)cc2)nn1-c1ccccc1` it is 22.4 µM [rising, single point]. For the molecule `CCOc1ccc(OCCSc2nc3ccccc3[nH]2)cc1`, the AC50 runs as follows: under setting [1], 2.51 µM [falling, partial curve, poor fit]; under setting [2], 11.2 µM [rising, partial curve].

Consider `COc1ccc(C(=O)NCc2nnc(SCC(=O)c3ccccc3)n2C)cc1`, for which the AC50 under setting [1] is 0.1 µM [falling, full curve, poor fit] and the AC50 under setting [2] is 0.355 µM [falling, full curve, poor fit].

As to `Cc1cccn2c(=O)cc(COc3ccc(NC(=O)C(C)C)cc3)nc12`, the concentration at half-maximal activity (AC50) under setting [1] is 0.562 µM [rising, full curve, poor fit]. On the same count and under the same terms, the figure for `Cc1cc(C)nc(/N=C2\NC(=O)CC(C(=O)O)N2c2ccc(Cl)cc2Cl)n1` (stereo not drawn) is 0.794 µM [rising, full curve, poor fit].

Take `Cc1ccc(C(=O)Nc2cccc([N+](=O)[O-])c2)cc1S(=O)(=O)Nc1ccc(NC(=O)c2ccccc2)cc1`: the AC50 under setting [1] is 15.8 µM [rising, single point] and the AC50 under setting [2] was 10 µM [rising, single point]. On to `Cc1ccccc1NC(=O)CSc1nc2ccc(NC(=O)CCc3ccccc3)cc2s1`, for which the AC50 under setting [2] was 20 µM [falling, partial curve, poor fit]. Still for that read-out and setting: the figure for `Nc1cc(-c2cccc([N+](=O)[O-])c2)[nH]n1` is 2.24 µM [rising, partial curve]. As for `N#CCCn1c(=O)c(-c2ccc(Cl)cc2)nc2cnc(Nc3ccccc3)nc21`, the AC50 was 12.6 µM [falling, single point] under setting [1] and 10 µM [falling, partial curve] under setting [2]. As to `Cc1c(C)n(CC(O)CN2CCCCCC2)c2ccccc12` (stereo not drawn), under setting [2], the AC50 is 5.62 µM [rising, single point]. The same measure, in the same setting: then `CCn1nnc(NC(=O)COc2ccc(C3CCCCC3)cc2)n1`, with 31.6 µM [rising, single point]. In the case of `CN1CCc2cccc3c2[C@H]1Cc1ccc(O)c(O)c1-3`, the half-maximal activity concentration (AC50) under setting [1] is 25.1 µM [falling, partial curve] and 35.5 µM [falling, single point]; the AC50 under setting [2] was 28.2 µM [falling, partial curve] and 35.5 µM [falling, single point]. On to `CCCNC(=O)Cn1nc(-c2ccc(C)c(C)c2)c2cnc3ccc(OC)cc3c21`, for which the AC50 under setting [1] was 25.1 µM [falling, partial curve, poor fit]. On to `COc1ccc(CNC(=O)COC(=O)c2c(-c3c(F)cccc3Cl)noc2C)cc1OC`, for which the AC50 is 35.5 µM [rising, single point] under setting [1] and 22.4 µM [rising, single point] under setting [2].
